From patent publication US20230172877A1, “METABOLITES RELEASED FROM APOPTOTIC CELLS ACT AS NOVEL TISSUE MESSENGERS” (University of Virginia Patent Foundation, priority 2020, published 2023)

Test system: Jurkat T cells
Assay: Untargeted metabolomics of supernatants and cell pellets of apoptotic (UV) versus live Jurkat T cells
Format: cell-based, human
[1] = Jurkat T cells, UV, cell pellet decrease, apoptotic versus live
[2] = Jurkat T cells, UV, supernatant enrichment, apoptotic versus live
[3] = Jurkat UV metabolite release, apoptotic versus live supernatant, 4 hours after apoptosis induction

Row | SMILES | Fold Change (FAp/FL)-Cell [1] | Fold Change (FAp/FL)-Supe [2] | Fold Change (FAp/FL) [3] | other results
1 | CCCCCCCC/C=C\CCCCCCCC(=O)OC[C@@H](O)COP(=O)([O-])OCC[N+](C)(C)C [1-oleoyl-GPC (18:1)] | 0.46 | 2.74 | 2.74 | 
2 | CCCCCCCCCCCCCCCCCC(=O)OC[C@@H](O)COP(=O)([O-])OCC[N+](C)(C)C [1-stearoyl-GPC (18:0)] | 0.53 | 1.21 |  | 
3 | O=C(O)CCC(O)C(=O)O (centres unmarked) [2-hydroxyglutarate] | 0.07 | 3.06 | 3.06 | 
4 | Nc1ncnc2c1ncn2[C@H]1C[C@H](O)[C@@H](COP(=O)(O)O)O1 [2′-deoxyadenosine 5′-monophosphate] | 0.65 | 20.95 | 20.95 | 
5 | Nc1ccn([C@H]2C[C@H](O)[C@@H](COP(=O)(O)O)O2)c(=O)n1 [2′-deoxycytidine 5′-monophosphate] | 0.06 | 1.54 | 1.54 | 
6 | Nc1ccn([C@H]2C[C@H](O)[C@@H](CO)O2)c(=O)n1 [2′-deoxycytidine] | 0.26 | 4.21 | 4.21 | 
7 | Nc1nc2c(ncn2[C@H]2C[C@H](O)[C@@H](CO)O2)c(=O)[nH]1 [2′-deoxyguanosine] | 0.61 | 3.12 | 3.12 | 
8 | OC[C@H]1O[C@@H](n2cnc3c(O)ncnc32)C[C@@H]1O [2′-deoxyinosine] | 0.67 | 2.38 | 2.38 | 
9 | CC(O)(CC(=O)O)CC(=O)O [3 -hydroxy-3 -methylglutarate, 3-hydroxy-3-methylglutarate] | 0.10 | 1.70 | 1.70 | 
10 | N[C@@H](CS(=O)(=O)O)C(=O)O [3 -sulfo-L-alanine] |  |  | 2.30 | 
11 | Cn1c(=N)ccn([C@@H]2O[C@H](CO)[C@@H](O)[C@H]2O)c1=O [3-methylcytidine] |  |  | 1.53 | 
12 | N=C(N)NCCCC(=O)O [4-guanidinobutanoate] | 0.28 | 1.42 | 1.42 | 
13 | Cc1cn([C@H]2C[C@H](O)[C@@H](CO)O2)c(=O)nc1N [5-methyl-2′-deoxycytidine] |  |  | 1.65 | 
14 | Cn1cnc2c(ncn2[C@@H]2O[C@H](CO)[C@@H](O)[C@H]2O)c1=O [N1-methylinosine] |  |  | 1.47 | 
15 | CN(C)c1nc2c(ncn2[C@@H]2O[C@H](CO)[C@@H](O)[C@H]2O)c(=O)[nH]1 [N2,N2-dimethylguanosine] |  |  | 1.63 | 
16 | CC(=O)N[C@@H](CCCNC(=N)N)C(=O)O [N-acetylarginine] |  |  | 2.02 | 
17 | CC(=O)N[C@@H](CC(N)=O)C(=O)O [N-acetylasparagine] | 0.64 | 2.70 | 2.70 | 
18 | CC(=O)N[C@@H](CC(=O)O)C(=O)O [N-acetylaspartate (NAA), N-acetylaspartate] | 0.10 | 7.35 | 7.35 | 
19 | CC(=O)N[C@@H](CCC(=O)O)C(=O)O [N-acetylglutamate] | 0.12 | 3.30 | 3.30 | 

Row | SMILES | Fold Change (FAp/FL)-Cell [1] | Fold Change (FAp/FL)-Supe [2] | Fold Change (FAp/FL) [3] | other results
20 | CC(=O)N[C@@H](CCC(N)=O)C(=O)O [N-acetylglutamine] | 0.43 | 3.45 | 3.45 | 
21 | CC(=O)N[C@@H](Cc1c[nH]cn1)C(=O)O [N-acetylhistidine] | 0.49 | 2.58 | 2.58 | 
22 | CC[C@H](C)[C@H](NC(C)=O)C(=O)O [N-acetylisoleucine] |  |  | 2.76 | 
23 | CC(=O)N[C@@H](CC(C)C)C(=O)O [N-acetylleucine] |  |  | 2.48 | 
24 | CSCC[C@H](NC(C)=O)C(=O)O [N-acetylmethionine] | 0.50 | 1.70 | 1.70 | 
25 | CC(=O)N[C@H]1[C@H]([C@@H](O)[C@@H](O)CO)O[C@@](O)(C(=O)O)C[C@@H]1O [N-acetylneuraminate] | 0.74 | 4.18 | 4.18 | 
26 | CC(=O)N[C@@H](Cc1ccccc1)C(=O)O [N-acetylphenylalanine] |  |  | 2.76 | 
27 | CC(=O)N1CCC[C@H]1C(=O)O [N-acetylproline] |  |  | 2.15 | 
28 | CC(=O)N[C@@H](CO)C(=O)O [N-acetylserine] | 0.11 | 3.59 | 3.59 | 
29 | CC(=O)N[C@H](C(=O)O)[C@@H](C)O [N-acetylthreonine] | 0.16 | 4.17 | 4.17 | 
30 | NC(=O)N[C@@H](CC(=O)O)C(=O)O [N-carbamoylaspartate] | 0.01 | 1.31 | 1.31 | 
31 | O=CN[C@@H](Cc1ccccc1)C(=O)O [N-formylphenylalanine] |  |  | 1.87 | 
32 | CC(=O)N[C@H]1[C@@H](OP(=O)(O)OP(=O)(O)OC[C@H]2O[C@@H](n3ccc(=O)[nH]c3=O)[C@H](O)[C@@H]2O)O[C@H](CO)[C@H](O)[C@@H]1O [UDP-N-acetylgalactosamine] | 0.60 | 16.96 | 16.96 | 
33 | CC(=O)N[C@H]1[C@@H](OP(=O)(O)OP(=O)(O)OC[C@H]2O[C@@H](n3ccc(=O)[nH]c3=O)[C@H](O)[C@@H]2O)O[C@H](CO)[C@@H](O)[C@@H]1O [UDP-N-acetylglucosamine] | 0.59 | 15.14 | 15.14 | 
34 | Nc1ncnc2nc[nH]c12 [adenine] |  |  | 4.63 | 
35 | Nc1ncnc2c1ncn2[C@@H]1O[C@H](COP(=O)(O)O)[C@@H](O)[C@H]1O [adenosine 5′-monophosphate (AMP), adenosine 5′-monophosphate] | 0.13 | 14.95 | 14.95 | 
36 | C[C@H](N)C(=O)O [alanine] |  |  |  | Release of metabolite into apoptotic cell supernatants (in words) (Jurkat T cell supernatants, live and apoptotic conditions): not released
37 | N=C(N)NCCC[C@H](N)C(=O)O [arginine] |  |  | 1.04 | 
38 | C[N+](C)(C)CC(O)CC(=O)[O-] (centres unmarked) [carnitine] | 0.15 | 2.19 | 2.19 | 

Row | SMILES | Fold Change (FAp/FL)-Cell [1] | Fold Change (FAp/FL)-Supe [2] | Fold Change (FAp/FL) [3] | other results
39 | CN(CC(=O)O)C(=N)N [creatine] | 0.21 | 5.26 | 5.26 | 
40 | N[C@@H](CCSC[C@H](N)C(=O)O)C(=O)O [cystathionine] | 0.08 | 2.52 | 2.52 | 
41 | N[C@@H](CSS(=O)(=O)O)C(=O)O [cysteine s-sulfate] |  |  | 2.12 | 
42 | N[C@@H](CS(=O)O)C(=O)O [cysteine sulfinic acid] | 0.48 | 2.02 | 2.02 | 
43 | N[C@@H](CS)C(=O)O [cysteine] | 0.60 | 1.78 | 1.78 | 
44 | C[N+](C)(C)CCOP(=O)(O)OP(=O)([O-])OC[C@H]1O[C@@H](n2ccc(N)nc2=O)[C@H](O)[C@@H]1O [cytidine 5′-diphosphocholine] |  |  | 11.87 | 
45 | Nc1ccn([C@@H]2O[C@H](COP(=O)(O)O)[C@@H](O)[C@H]2O)c(=O)n1 [cytidine 5′-monophosphate (5′-CMP), cytidine 5′-monophosphate] | 0.34 | 16.36 | 16.36 | 
46 | Nc1ccn([C@@H]2O[C@H](CO)[C@@H](O)[C@H]2O)c(=O)n1 [cytidine] | 0.73 | 99.36 | 99.36 | 
47 | C[N+](C)(C)CCCC(=O)[O-] [deoxycarnitine] | 0.10 | 3.25 | 3.25 | 
48 | CN(C)CC(=O)O [dimethylglycine] | 0.46 | 2.29 | 2.29 | 
49 | CC/C=C\C/C=C\C/C=C\C/C=C\C/C=C\C/C=C\CCC(=O)O [docosahexaenoate (DHA; 22:6n3)] |  |  | 1.97 | 
50 | O=C(O)[C@H](O)[C@H](O)CO [erythronate*, erythronate] |  |  |  | Fold Change (FAp/FL): 1.13; Fold Change (FAp/FL)-Cell: 0.08; Fold Change (FAp/FL)-Supe: 1.13
51 | O=C(CO)[C@@H](O)[C@H](O)[C@H](O)CO [fructose] |  |  | 1.25 | 
52 | O=C(O)/C=C/C(=O)O [fumarate] | 0.34 | 5.39 | 5.39 | 
53 | NC(=O)CC[C@H](NC(=O)CC[C@H](N)C(=O)O)C(=O)O [gamma-glutamylglutamine] | 0.45 | 1.51 | 1.51 | 
54 | CSCC[C@H](NC(=O)CC[C@H](N)C(=O)O)C(=O)O [gamma-glutamylmethionine] | 0.45 | 2.02 | 2.02 | 
55 | C[C@@H](O)[C@H](NC(=O)CC[C@H](N)C(=O)O)C(=O)O [gamma-glutamylthreonine*, gamma-glutamylthreonine] | 0.16 | 4.15 | 4.15 | 
56 | N[C@@H](CCC(=O)O)C(=O)O [glutamate] | 0.23 | 1.52 | 1.52 | 
57 | O=P(O)(O)OCC(O)CO (centres unmarked) [glycerol 3-phosphate] | 0.66 | 14.17 | 14.17 | 

Read-outs that look alike come from different tables or passages of the source.
